The supplement of paper PMC4604168 (melanoma cell lines)
This is one part of the list. Many values rest on one well or one pass, so single values are uncertain.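 The apoptosis fraction was the count of cleaved-PARP antibody-stained nuclei relative to all DNA-stained nuclei, imaged in 1,536-well plates. Screening doses were set so most cells survived, and baseline and induced cleaved-PARP levels vary greatly across cell lines.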

Legend:
Experiment in all cases: cleaved PARP positive nuclei fraction relative to DMSO control; melanoma cells; higher = more apoptosis
Conditions in all cases: library dose: low library concentration; 72 h
[1] = system: 501Mel
[2] = system: A101D
[3] = system: A2058
[4] = system: A375
[5] = system: C32
[6] = system: CBRC013 (line from a melanoma biopsy)
[7] = system: CBRC014 (line from a melanoma biopsy)
[8] = system: CBRC016 (line from a melanoma biopsy)
[9] = system: CBRC017 (line from a melanoma biopsy)

Compound	cleaved PARP positive nuclei fraction [1]	cleaved PARP positive nuclei fraction [2]	cleaved PARP positive nuclei fraction [3]	cleaved PARP positive nuclei fraction [4]	cleaved PARP positive nuclei fraction [5]	cleaved PARP positive nuclei fraction [6]	cleaved PARP positive nuclei fraction [7]	cleaved PARP positive nuclei fraction [8]	cleaved PARP positive nuclei fraction [9]
NCC(=O)Nc1ccc(-n2nc(C(F)(F)F)cc2-c2ccc3c(ccc4ccccc43)c2)cc1 + Cn1cc(/C=C2\C(=O)Nc3cccnc32)c2ccccc21 [GW441756] (first compound 1 µM, partner dose 0.4 µM)	393%	169%	41.1%	2800%	141%	341%	85.6%	22.7%	91.3%
O=C(Nc1ccccc1)c1cc([N+](=O)[O-])ccc1Cl + CCN(CC)CCCCNc1ncc2cc(-c3cc(OC)cc(OC)c3)c(NC(=O)NC(C)(C)C)nc2n1 [PD173074] (first compound 2 µM, partner dose 0.1 µM)	167%	48.8%	79.9%	57%	72.6%	369%	92.1%	51.9%	206%
Cn1cc(/C=C2\C(=O)Nc3cccnc32)c2ccccc21 + O=c1cc(-c2cccc3c2Sc2ccccc2S3)oc(N2CCOCC2)c1 [KU55933] (first compound 0.4 µM, partner dose 1 µM)	72.6%	218%	45.3%	70.6%	194%	131%	98.6%	77%	91.1%
COc1cc2c(Oc3ccc4[nH]c(C)cc4c3F)ncnc2cc1OCCCN1CCCC1 [cediranib] + CCN(CC)CCCCNc1ncc2cc(-c3cc(OC)cc(OC)c3)c(NC(=O)NC(C)(C)C)nc2n1 [PD173074] (first compound 0.4 µM, partner dose 0.1 µM)	67.1%	107%	132%	79%	91.2%	96.7%	100%	19.9%	72.8%
NCC(=O)Nc1ccc(-n2nc(C(F)(F)F)cc2-c2ccc3c(ccc4ccccc43)c2)cc1 + c1cc(-c2cnn3cc(-c4ccc(OCCN5CCCCC5)cc4)cnc23)ccn1 [Dorsomorphin] (first compound 1 µM, partner dose 0.4 µM)	367%	72.7%	56.1%	4520%	144%	35.7%	119%	52.9%	88.1%
COc1cc(N2CCC(N3CCN(C)CC3)CC2)ccc1Nc1ncc(Cl)c(Nc2ccccc2S(=O)(=O)C(C)C)n1 + CC(C)CCN1c2nc(Nc3cc(F)c(O)c(F)c3)ncc2N(C)C(=O)C1C [BID1870] (first compound 0.08 µM, partner dose 0.2 µM)	69.6%	140%	297%	109%	42.8%	220%	125%	40.8%	84.2%
COC(=O)c1sccc1S(=O)(=O)Nc1ccc(Nc2ccccc2)cc1OC + Cc1cc([N+](=O)[O-])ccc1NS(=O)(=O)c1cc(Cl)ccc1Cl [FH535] (first compound 1 µM, partner dose 1 µM)	70.5%	119%	47.4%	10.1%	97.8%	168%	161%	689%	453%
Oc1cc(-c2nc(-c3ccccc3)[nH]c2-c2ccncc2)ccc1Cl + COc1cc(N2CCC(N3CCN(C)CC3)CC2)ccc1Nc1ncc(Cl)c(Nc2ccccc2S(=O)(=O)C(C)C)n1 [NVP-TAE684] (first compound 0.2 µM, partner dose 0.08 µM)	44.1%	69.6%	102%	428%	176%	410%	103%	91.5%	78.5%
CN(NC(=O)CC(=O)NN(C)C(=S)c1ccccc1)C(=S)c1ccccc1 + COc1ccc(COc2ccc(Cc3cnc(N)nc3N)cc2OC)cc1 [GW2580] (first compound 0.006 µM, partner dose 1 µM)	136%	136%	364%	2190%	121%	59.4%	983%	260%	130%
COc1cc2c(Oc3ccc4[nH]c(C)cc4c3F)ncnc2cc1OCCCN1CCCC1 [cediranib] + COc1ccc(-c2ccc3c(N4CCOCC4)nc(N4C[C@@H](C)O[C@@H](C)C4)nc3n2)cc1CO [KU0063794] (first compound 0.4 µM, partner dose 0.02 µM)	21.5%	105%	104%	179%	102%	242%	83.9%	92.8%	79.4%
COc1ccc(COc2ccc(Cc3cnc(N)nc3N)cc2OC)cc1 + Oc1cc(-c2nc(-c3ccccc3)[nH]c2-c2ccncc2)ccc1Cl [L779450] (first compound 1 µM, partner dose 0.2 µM)	121%	144%	61.3%	73.8%	94.2%	258%	105%	19.8%	79%
NCC(=O)Nc1ccc(-n2nc(C(F)(F)F)cc2-c2ccc3c(ccc4ccccc43)c2)cc1 + CC(C)CCN1c2nc(Nc3cc(F)c(O)c(F)c3)ncc2N(C)C(=O)C1C [BID1870] (first compound 1 µM, partner dose 0.2 µM)	294%	302%	122%	1530%	60.4%	26.9%	129%	83.8%	89.1%

Part of the list above, as comma-separated lines:
Compound,cleaved PARP positive nuclei fraction [1],cleaved PARP positive nuclei fraction [2],cleaved PARP positive nuclei fraction [3],cleaved PARP positive nuclei fraction [4],cleaved PARP positive nuclei fraction [5],cleaved PARP positive nuclei fraction [6],cleaved PARP positive nuclei fraction [7],cleaved PARP positive nuclei fraction [8],cleaved PARP positive nuclei fraction [9]
"Cn1cc(/C=C2\C(=O)Nc3cccnc32)c2ccccc21 + O=c1cc(-c2cccc3c2Sc2ccccc2S3)oc(N2CCOCC2)c1 [KU55933] (first compound 0.4 µM, partner dose 1 µM)",72.6%,218%,45.3%,70.6%,194%,131%,98.6%,77%,91.1%
"COc1cc2c(Oc3ccc4[nH]c(C)cc4c3F)ncnc2cc1OCCCN1CCCC1 [cediranib] + CCN(CC)CCCCNc1ncc2cc(-c3cc(OC)cc(OC)c3)c(NC(=O)NC(C)(C)C)nc2n1 [PD173074] (first compound 0.4 µM, partner dose 0.1 µM)",67.1%,107%,132%,79%,91.2%,96.7%,100%,19.9%,72.8%
